The values that follow come from patent CN113912729A.

Experiment [1] addresses 可溶性生长刺激表达基因2蛋白(sST2)标准样品 (UniProt Q01638). Briefly: ELISA, sST2 coated at 100 ng/100 uL, purified VHH, HRP anti-HA detection, P/N of OD450. For orientation: ELISA stands for enzyme-linked immunosorbent assay.
For experiment [2], the target named is 生物素标记的sST2蛋白(sST2-Biotin) (UniProt Q01638). Briefly: ELISA of crude periplasmic extracts on sST2-Biotin captured by neutravidin; positive if OD450 more than 5x control.

These are yes or no findings as the source states them, for the method shown. Some binding calls cover weakened binding; strength is not graded here.

B1: 单域抗体4D2 (VHH)
VHH: ESGGGSVQAGGSLRLSCAASGFTYRRACMGWFRQAPGKEREGVAAIYTSGGMTFYDASVRGRFTISQDNAKNTVYLQMNSLKPEDTATYYCAAGGGDYCATNARFFNYWGQGTQVTVSS
Regarding B1, the binding entry in experiment [1] and in experiment [2] was “binds” throughout.

B2: 单域抗体3C5 (VHH)
VHH: ESGGGSAQAGGSLRLSCTASGSGYFYSRLCMGWFRQAPGTGREAVATSYPGIGSTYYADSVKGRFTISQDNAKNTMYLQMNSLKPEDTAMYYCAADATWNTCGITKTTYAYWGQGTQVTVSS
With B2, the binding result in experiment [1] and in experiment [2] was “binds” in each case.

B3: 单域抗体2C2 (VHH)
VHH: ESGGGSVQAGGSLRLSCVVSGNMYRRNCIGWFRQAPGKEREGVAAIYTAGGYSYYGDSVKGRFTISQDNPKNTVYLQMNNLKPEDTAMYYCATDGRDGDLCAARSDFRYWGQGTQVTVSS
With B3, the binding entry in experiment [1] and in experiment [2] was “binds” throughout.

B4: 单域抗体3B1 (VHH)
VHH: ESGGGSVQAGGSLRLSCVASGVTFSRSCIGWFRQIPGKEREGVAVVYTGGRSIDYSAYVDSVKGRFTISHDNAWNTVYLQMNSLKPEDTAMYYCAADFLLQEPCTVLSSRGFKFWGQGTQVTVSS
For B4, the binding result in experiment [1] and in experiment [2] was “binds” throughout.

B5: 单域抗体2F9 (VHH)
VHH: ESGGGSVQAGGSLRLSCTASGITYSRNCLGWFRQAPGKEREWVATIYTSTGTTYFDDSVKGRFTISQDNAKNTLYLQMNSLKPEDTAMYYCAAAVSGWSVCSRSTKYNYWGHGTQVTVSS
As to B5, the binding result in experiment [1] and in experiment [2] was “binds” throughout.

B6: 单域抗体2F4 (VHH)
VHH: ESGGGSVQAGGSLRLSCAASGYTINYRMGWFRQAPGKEREGVAMASAISEDYADSVKGRFSISRDSAKNTLYLQMNSLKPEDTGMYYCAAGRVWGRLWNPDDYNSWGQGTQVTVSS
B6: the binding entry in experiment [1] and in experiment [2] was “binds” each time.

B7: 单域抗体4A1 (VHH)
VHH: ESGGGSVQAGGSLRVSCAASGYTYSSYCMGWFRQAPGKEREGVASIDSRGSTTYADSLKGRFTISKDNAKNTLYLQMNNLKPEDTAKYYCAAGDGYGLEHICIPHYYAMNYWGEGTQVTVSS
Take B7: the binding entry in experiment [1] and in experiment [2] was “binds” throughout.

B8: 单域抗体1A10 (VHH)
VHH: ESGGGSVQPGGSLRLSCAASGATFINWSMGWFRQAPGKEREVVAAIESGGSPTYADSVKDRFTLSTDVAKNILYLQMNSLKPADTAMYYCAAKKVWAREFAYWGQGTQVTVSS
With B8, the binding result in experiment [1] and in experiment [2] was “binds” in each case.

B9: 单域抗体3C8 (VHH)
VHH: ESGGGSVQAGGSLRLSCAASGYTYSRYCMGWFRQTPGKGREGVASINSDGTTIYGNFVKGRFTISEDNAKNTLYLQMNSLKPEDTAMYYCAARVDSTCAPMPSWFTYWGQGTQVTVSS
On to B9, for which the binding result in experiment [1] and in experiment [2] was “binds” each time.

B10: 单域抗体1A9 (VHH)
VHH: ESGGGSVQAGGSLRLSCAASGYTYSTYCMAWFRQALGKEREGVAGIDSDGSTTYADSVKGRFTISKDNAKDTLYLQMDSLKPEDTAMYYCAALSPRCDFDRSSRVTNWGQGTQVTVSS
As for B10, the binding result in experiment [1] and in experiment [2] was “binds” in each case.

B11: 单域抗体2F1 (VHH)
VHH: ESGGGSVQSGGSLRLSCAASGYTFRRYCMGWFRQAPGKEREGVAVLYTGVDITYYADSVKGRFTISQDNAKKTLYLQMNSLKPEDTALYYCAADSGPLCGLGIQFGYWGQGTQVTVSS
In the case of B11, the binding entry in experiment [1] and in experiment [2] was “binds” each time.

B12: 单域抗体2B4 (VHH)
VHH: ESGGGSVQAGGSLRLSCTASGFTFGDADMGWYRQAPGNECELVSSLGDNGSTYYADSVKGRFTISQDNAKNTVYLQMNSLKPEDTAVYYCAAERLWTASTVVPDTPCLDEIEDFGYWGRGTQVTVSS
Turning to B12, the binding result in experiment [1] and in experiment [2] was “binds” in each case.

B13: 单域抗体3A10 (VHH)
VHH: ESGGGSVQTGGSLRLSCAASGYTYSSYCMAWFRQAPGKEREGVAALDSDGSTTYADSVKGRFTVSKDNAKNTLYLQMNSLKPEDTAMYYCAADLTCYCSDGYCYNGDEYNYWGQGTQVTVSS
On to B13, for which the binding entry in experiment [1] and in experiment [2] was “binds” throughout.

B14: 单域抗体3B7 (VHH)
VHH: ESGGGSVQAGGSLRLSCAASEYAYINYCMGWFRQVPGKEREGVAVICSGGGATYYTDSVKGRFTISQDGAKYTLYLQMNSLKPEDTAMYYCAAGRRPYYSGAYFRTADYNYWGQGTQVTVSS
On to B14, for which the binding result in experiment [1] and in experiment [2] was “binds” each time.

B15: 单域抗体1B5 (VHH)
VHH: ESGGGSVQAGGSLRLSCAASGYTYSGICMGWFRQAPGKEREGVAAIYTNGEYTYYADSVKGRFTISQDNAKNTVYLQMNSLKPEDTAMYYCAADRNTCGLRGDFYNYWGQGTQVTVSS
In the case of B15, the binding result in experiment [1] and in experiment [2] was “binds” in each case.

B16: 单域抗体1B2 (VHH)
VHH: ESGGGSVQAGGSLRLSCATSGVTYRRTCMGWFRQAPGKEREGVAAIYTSGGFTFYADSVKGRFTISQDNAKNTLYLQMNTLKPEDTGIYYCAAEAGDECSASSVFRSWGQGTQVTVSS
In the case of B16, the binding result in experiment [1] and in experiment [2] was “binds” each time.

B17: 单域抗体1A7 (VHH)
VHH: ESGGGSVQAGGSLRLSCAASGYIYSRNCVGWFRQAPGKEREGIAALYTAGGYTYYSASVKGRFTISQDNAKNTVYLQMNSLKPEDTAMYYCAAARPSNSLTCGIATITTDDVWGQGTQVTVSS
As to B17, the binding result in experiment [1] and in experiment [2] was “binds” throughout.
